This is one part of the list.
Compound: Cc1cc(ccc1-c1ccccc1)C(=O)N1CCCN(CC1)C(=O)CCl [compound 10]
Test: probe-labelled cysteine peptide fold change vs DMSO (competition) (log2 fold change); higher = less target engagement (more negative = stronger competition)
Settings: THP-1, incubation time: 4 h
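Further: competitive profiling in live THP-1 cells: cysteine peptides tagged with an iodoacetamide desthiobiotin (IA-DTB) probe, intensity after compound treatment relative to DMSO-treated cells.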

By UniProt entry, the sequences of proteins in these tests, tags left out. Where a name states a change or a piece, a line headed by the entry shows the natural chain unless it says otherwise.
UniProt Q9Y678: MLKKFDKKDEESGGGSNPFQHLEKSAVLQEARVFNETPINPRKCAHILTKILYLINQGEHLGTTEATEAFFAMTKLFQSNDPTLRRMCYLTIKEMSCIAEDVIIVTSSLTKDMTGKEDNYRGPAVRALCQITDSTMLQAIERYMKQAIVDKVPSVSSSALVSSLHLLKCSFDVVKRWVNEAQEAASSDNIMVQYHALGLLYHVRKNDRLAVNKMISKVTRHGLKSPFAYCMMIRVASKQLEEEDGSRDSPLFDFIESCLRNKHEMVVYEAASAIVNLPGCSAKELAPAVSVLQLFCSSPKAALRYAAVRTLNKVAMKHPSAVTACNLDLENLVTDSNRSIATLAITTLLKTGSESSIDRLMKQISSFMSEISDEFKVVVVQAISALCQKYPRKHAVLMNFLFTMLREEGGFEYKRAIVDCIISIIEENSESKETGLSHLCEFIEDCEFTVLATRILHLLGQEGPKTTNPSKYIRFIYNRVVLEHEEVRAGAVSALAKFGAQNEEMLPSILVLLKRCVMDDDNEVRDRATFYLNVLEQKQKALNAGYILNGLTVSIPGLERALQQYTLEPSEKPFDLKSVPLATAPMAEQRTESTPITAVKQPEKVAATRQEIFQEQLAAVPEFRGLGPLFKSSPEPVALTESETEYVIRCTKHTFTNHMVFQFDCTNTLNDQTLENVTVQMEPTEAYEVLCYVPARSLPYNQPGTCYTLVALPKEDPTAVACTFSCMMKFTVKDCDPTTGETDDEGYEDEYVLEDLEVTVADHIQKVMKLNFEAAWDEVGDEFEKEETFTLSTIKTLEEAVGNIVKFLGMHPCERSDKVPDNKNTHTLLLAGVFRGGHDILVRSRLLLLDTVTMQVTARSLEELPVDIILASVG
UniProt Q14746: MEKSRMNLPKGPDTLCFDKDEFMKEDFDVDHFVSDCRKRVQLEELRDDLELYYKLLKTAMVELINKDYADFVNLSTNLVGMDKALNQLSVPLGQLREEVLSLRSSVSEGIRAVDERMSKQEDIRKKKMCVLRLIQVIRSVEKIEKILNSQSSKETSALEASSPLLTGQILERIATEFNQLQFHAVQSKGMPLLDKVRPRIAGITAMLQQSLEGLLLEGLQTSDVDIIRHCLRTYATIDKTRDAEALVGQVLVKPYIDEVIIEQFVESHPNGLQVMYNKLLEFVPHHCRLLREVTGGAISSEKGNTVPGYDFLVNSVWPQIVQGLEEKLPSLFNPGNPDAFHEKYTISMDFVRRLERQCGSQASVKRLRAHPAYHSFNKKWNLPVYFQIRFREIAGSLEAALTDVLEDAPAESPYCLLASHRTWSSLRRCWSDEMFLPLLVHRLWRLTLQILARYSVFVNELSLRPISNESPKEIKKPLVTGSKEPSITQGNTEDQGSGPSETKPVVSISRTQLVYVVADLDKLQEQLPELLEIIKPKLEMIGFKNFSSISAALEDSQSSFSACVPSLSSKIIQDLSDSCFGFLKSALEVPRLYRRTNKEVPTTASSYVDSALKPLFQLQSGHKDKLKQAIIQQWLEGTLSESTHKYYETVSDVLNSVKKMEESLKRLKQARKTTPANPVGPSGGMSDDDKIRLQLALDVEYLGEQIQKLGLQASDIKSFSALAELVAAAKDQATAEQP
UniProt P83436: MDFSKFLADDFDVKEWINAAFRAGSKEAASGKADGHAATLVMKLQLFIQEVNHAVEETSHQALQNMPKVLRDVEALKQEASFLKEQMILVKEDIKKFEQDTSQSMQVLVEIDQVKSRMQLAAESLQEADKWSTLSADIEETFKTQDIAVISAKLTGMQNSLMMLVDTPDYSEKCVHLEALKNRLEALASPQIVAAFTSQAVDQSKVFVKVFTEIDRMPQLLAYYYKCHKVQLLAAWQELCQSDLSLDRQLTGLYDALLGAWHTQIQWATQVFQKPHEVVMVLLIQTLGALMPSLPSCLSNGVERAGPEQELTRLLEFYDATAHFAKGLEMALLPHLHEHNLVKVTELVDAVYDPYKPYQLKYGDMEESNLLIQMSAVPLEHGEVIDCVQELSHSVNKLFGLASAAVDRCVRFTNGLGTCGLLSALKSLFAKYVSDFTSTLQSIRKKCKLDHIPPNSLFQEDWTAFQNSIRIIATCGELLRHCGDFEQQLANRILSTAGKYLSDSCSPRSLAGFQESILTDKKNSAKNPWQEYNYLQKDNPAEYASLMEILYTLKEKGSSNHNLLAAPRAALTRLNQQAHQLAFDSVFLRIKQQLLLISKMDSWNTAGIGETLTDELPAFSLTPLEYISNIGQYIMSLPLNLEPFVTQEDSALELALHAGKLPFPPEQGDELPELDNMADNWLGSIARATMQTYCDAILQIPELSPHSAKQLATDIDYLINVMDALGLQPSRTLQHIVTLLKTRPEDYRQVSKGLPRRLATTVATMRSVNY
UniProt P53621: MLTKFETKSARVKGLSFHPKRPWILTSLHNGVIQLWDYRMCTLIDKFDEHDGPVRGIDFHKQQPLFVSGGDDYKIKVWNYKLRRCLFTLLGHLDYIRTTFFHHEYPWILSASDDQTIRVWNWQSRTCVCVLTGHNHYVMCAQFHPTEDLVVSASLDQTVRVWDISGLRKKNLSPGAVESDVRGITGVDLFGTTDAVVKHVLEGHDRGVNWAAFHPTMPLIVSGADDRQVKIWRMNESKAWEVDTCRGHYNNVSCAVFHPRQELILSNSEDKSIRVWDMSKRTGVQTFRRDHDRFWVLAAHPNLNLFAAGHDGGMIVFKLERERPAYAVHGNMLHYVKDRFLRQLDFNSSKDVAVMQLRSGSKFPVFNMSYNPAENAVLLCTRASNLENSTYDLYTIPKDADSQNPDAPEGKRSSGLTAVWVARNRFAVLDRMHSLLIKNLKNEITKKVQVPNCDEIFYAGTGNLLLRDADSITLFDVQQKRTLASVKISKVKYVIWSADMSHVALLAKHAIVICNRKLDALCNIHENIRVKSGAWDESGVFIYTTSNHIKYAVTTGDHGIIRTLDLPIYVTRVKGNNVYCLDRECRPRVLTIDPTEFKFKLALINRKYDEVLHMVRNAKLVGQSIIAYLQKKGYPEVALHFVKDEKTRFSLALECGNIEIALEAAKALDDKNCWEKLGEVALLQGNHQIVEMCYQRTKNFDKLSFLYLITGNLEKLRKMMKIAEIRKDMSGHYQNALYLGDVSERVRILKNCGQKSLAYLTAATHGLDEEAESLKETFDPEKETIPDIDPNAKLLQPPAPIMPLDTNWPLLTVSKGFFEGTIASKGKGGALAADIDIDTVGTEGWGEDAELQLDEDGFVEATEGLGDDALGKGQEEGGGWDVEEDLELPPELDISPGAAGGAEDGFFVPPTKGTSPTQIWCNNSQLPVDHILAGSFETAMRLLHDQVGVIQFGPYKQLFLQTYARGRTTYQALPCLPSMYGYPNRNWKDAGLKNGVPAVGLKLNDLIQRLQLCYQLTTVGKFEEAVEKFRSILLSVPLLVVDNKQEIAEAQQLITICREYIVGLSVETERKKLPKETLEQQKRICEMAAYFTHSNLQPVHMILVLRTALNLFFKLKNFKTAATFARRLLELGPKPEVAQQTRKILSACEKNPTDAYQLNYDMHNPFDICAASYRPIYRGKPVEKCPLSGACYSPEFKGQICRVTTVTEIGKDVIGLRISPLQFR
UniProt P31146: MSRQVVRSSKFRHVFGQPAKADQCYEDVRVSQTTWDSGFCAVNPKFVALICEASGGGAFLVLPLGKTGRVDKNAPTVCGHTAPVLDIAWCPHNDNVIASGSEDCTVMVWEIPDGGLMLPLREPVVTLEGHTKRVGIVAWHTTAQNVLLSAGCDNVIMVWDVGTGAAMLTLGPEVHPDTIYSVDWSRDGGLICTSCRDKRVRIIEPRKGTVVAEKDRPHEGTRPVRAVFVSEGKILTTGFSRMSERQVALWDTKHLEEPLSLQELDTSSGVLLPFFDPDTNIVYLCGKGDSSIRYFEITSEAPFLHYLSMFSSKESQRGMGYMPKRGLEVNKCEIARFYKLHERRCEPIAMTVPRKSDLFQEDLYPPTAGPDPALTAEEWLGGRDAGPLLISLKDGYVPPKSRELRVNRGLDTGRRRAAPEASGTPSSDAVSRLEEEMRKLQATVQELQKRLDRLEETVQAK
UniProt Q96D53: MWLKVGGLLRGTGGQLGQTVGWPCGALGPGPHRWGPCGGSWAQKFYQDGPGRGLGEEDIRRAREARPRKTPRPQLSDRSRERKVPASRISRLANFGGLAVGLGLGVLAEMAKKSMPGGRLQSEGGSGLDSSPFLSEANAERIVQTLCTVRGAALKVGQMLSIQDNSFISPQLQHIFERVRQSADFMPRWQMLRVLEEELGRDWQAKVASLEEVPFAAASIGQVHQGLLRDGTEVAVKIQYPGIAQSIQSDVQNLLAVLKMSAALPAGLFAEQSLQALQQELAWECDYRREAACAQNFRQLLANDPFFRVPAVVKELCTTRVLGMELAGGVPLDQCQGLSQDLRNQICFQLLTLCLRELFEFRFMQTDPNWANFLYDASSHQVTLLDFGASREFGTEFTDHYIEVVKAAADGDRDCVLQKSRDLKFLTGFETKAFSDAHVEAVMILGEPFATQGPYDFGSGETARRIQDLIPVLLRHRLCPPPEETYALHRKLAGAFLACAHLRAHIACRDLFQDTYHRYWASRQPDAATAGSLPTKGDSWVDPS
UniProt Q5EBM0: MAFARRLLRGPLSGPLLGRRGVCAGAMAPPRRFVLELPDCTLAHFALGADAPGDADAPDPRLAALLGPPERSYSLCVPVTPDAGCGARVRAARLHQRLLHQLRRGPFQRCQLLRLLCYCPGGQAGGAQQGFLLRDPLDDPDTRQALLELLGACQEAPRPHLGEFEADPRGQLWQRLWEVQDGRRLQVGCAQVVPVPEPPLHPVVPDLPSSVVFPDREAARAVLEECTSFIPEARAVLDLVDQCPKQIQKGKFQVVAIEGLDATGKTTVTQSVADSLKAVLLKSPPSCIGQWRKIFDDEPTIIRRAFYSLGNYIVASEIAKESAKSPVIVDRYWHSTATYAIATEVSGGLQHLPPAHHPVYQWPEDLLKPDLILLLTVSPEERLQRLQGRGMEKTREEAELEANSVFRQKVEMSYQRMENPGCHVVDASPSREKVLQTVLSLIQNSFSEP
UniProt Q8WTW3: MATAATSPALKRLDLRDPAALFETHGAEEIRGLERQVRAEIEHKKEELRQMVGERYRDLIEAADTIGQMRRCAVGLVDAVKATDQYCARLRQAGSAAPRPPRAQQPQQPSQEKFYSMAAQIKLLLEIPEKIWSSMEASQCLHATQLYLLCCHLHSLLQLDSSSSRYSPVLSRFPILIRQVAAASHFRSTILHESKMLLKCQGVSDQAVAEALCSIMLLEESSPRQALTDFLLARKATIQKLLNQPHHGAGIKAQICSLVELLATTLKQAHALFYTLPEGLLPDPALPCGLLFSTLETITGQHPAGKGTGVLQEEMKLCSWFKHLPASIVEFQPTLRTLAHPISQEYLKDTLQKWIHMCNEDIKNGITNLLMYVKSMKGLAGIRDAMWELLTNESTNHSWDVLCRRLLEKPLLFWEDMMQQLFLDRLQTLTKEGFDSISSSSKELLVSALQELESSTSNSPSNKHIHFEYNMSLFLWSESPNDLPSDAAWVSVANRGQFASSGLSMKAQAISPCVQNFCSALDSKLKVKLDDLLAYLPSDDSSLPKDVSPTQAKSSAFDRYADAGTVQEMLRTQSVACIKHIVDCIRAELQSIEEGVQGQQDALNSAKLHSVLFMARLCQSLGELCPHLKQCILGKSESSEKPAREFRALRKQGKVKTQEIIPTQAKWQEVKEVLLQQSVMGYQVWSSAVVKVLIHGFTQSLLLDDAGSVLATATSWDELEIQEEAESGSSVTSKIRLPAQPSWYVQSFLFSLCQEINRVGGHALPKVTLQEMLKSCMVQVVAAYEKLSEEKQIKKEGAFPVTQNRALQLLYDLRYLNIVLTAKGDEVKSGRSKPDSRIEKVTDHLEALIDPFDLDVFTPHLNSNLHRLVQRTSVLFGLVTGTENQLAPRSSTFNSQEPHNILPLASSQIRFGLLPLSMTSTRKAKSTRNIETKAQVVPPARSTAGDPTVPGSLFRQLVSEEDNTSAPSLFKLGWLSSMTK

Target	probe-labelled cysteine peptide fold change (10 µM)	probe-labelled cysteine peptide fold change (50 µM)
COPG1_Q9Y678_44_CAHILTK (UniProt Q9Y678)	-0.0131	-0.101
COG2_Q14746_287_LLEFVPHHCR (UniProt Q14746)	0.00625	-0.0636
COG7_P83436_505_YLSDSCSPR (UniProt P83436)	-0.224	-0.235
COPG1_Q9Y678_446_ETGLSHLCEFIEDCEFTVLATR (UniProt Q9Y678)	0.155	0.546
CNOT1_A5YKK6_1287_FEIEVLCK (UniProt A5YKK6)	-0.0705	0.975
COPA_P53621_85_CLFTLLGHLDYIR (UniProt P53621)	-0.0366	0.456
CNOT6L_Q96LI5_283_KHVDGCAIFFK (UniProt Q96LI5)	-0.0295	-0.239
CNOT1_A5YKK6_1420_IAMTTCEQIVR (UniProt A5YKK6)	0.167	0.155
CORO1A_P31146_24_ADQCYEDVR (UniProt P31146)	-0.314	-0.158
COQ8B_Q96D53_499_LAGAFLACAHLR (UniProt Q96D53)	-0.105	-0.96
CNOT1_A5YKK6_426_HAEGQLSFIQHSLINPEIFCFADYPCHTVATDILK (UniProt A5YKK6)	0.0645	-0.166
COL4A3BP_Q9Y5P4_529_KIPALTENDPETWIVCNFSVDHDSAPLNNR (UniProt Q9Y5P4)	0.164	0.0849
CMPK2_Q5EBM0_40_FVLELPDCTLAHFALGADAPGDADAPDPR (UniProt Q5EBM0)	0.103	0.123
COG1_Q8WTW3_318_LCSWFK (UniProt Q8WTW3)	-1.03	-2.3

Pulled one by one from above (2):
Target	probe-labelled cysteine peptide fold change (10 µM)	probe-labelled cysteine peptide fold change (50 µM)
COG1_Q8WTW3_318_LCSWFK (UniProt Q8WTW3)	-1.03	-2.3
COPG1_Q9Y678_446_ETGLSHLCEFIEDCEFTVLATR (UniProt Q9Y678)	0.155	0.546
